Reference: the supplement of paper PMC4604168 (melanoma cell lines)
This is one part of the list. Many values rest on one well or one pass, so single values are uncertain.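 Cells were imaged in 1,536-well plates, and nuclei stained with an antibody against cleaved PARP were counted against all DNA-stained nuclei to give the apoptosis fraction. Screening doses were chosen to leave most cells alive, and resting and induced cleaved-PARP levels differ strongly between cell lines.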

Test system: WM1745
Test: cleaved PARP positive nuclei fraction relative to DMSO control; melanoma cells; higher = more apoptosis
Details: library dose: low library concentration; 72 h

Row | Structure (SMILES) | cleaved PARP positive nuclei fraction
1 | CC(=O)c1c(C)c2cnc(Nc3ccc(N4CCNCC4)cn3)nc2n(C2CCCC2)c1=O [palbociclib] + O=C(O)c1ccc(-c2c[nH]c3ncc(-c4ccccc4)cc23)cc1C1CCCC1 [GSK650394] (first compound 0.04 µM, partner dose 0.16 µM) | 116%
2 | OCCn1cc(-c2cnc3nnn(Cc4ccc5ncccc5c4)c3n2)cn1 + Oc1cc(-c2nc(-c3ccccc3)[nH]c2-c2ccncc2)ccc1Cl [L779450] (first compound 1 µM, partner dose 0.2 µM) | 106%
3 | COc1cc(Nc2ncc(F)c(Nc3ccc4c(n3)NC(=O)C(C)(C)O4)n2)cc(OC)c1OC [Tamatinib] + CN(NC(=O)CC(=O)NN(C)C(=S)c1ccccc1)C(=S)c1ccccc1 [STA4783] (first compound 0.4 µM, partner dose 0.006 µM) | 230%
4 | Cc1ccc(NC(=O)c2cccc(N(C)C)c2)cc1NC(=O)c1ccc(O)cc1 + CC(C)(C)c1cnc(CSc2cnc(NC(=O)C3CCNCC3)s2)o1 [SNS-032] (first compound 2 µM, partner dose 0.01 µM) | 89.9%
5 | C[C@]1(c2nc3c(C(N)=O)cccc3[nH]2)CCCN1 [Veliparib] + Cc1ccc(NC(=O)c2cccc(N(C)C)c2)cc1NC(=O)c1ccc(O)cc1 [ZM336372] (first compound 1.4 µM, partner dose 2 µM) | 94.3%
6 | O=C(CCCCCCC(=O)Nc1ccccc1)NO [vorinostat] + CN(C)S(=O)(=O)c1ccc2c(c1)/C(=C/c1cc3c([nH]1)CCCC3)C(=O)N2 [SU6656] (first compound 0.08 µM, partner dose 0.4 µM) | 84.5%
7 | Cn1nnc2c(C(N)=O)ncn2c1=O [temozolomide] + Oc1nc(-c2ccc(C(F)(F)F)cc2)nc2c1CSCC2 [XAV939] (first compound 2 µM, partner dose 2 µM) | 110%

Test system: WM3526
Test: as above
Details: library dose: low library concentration; 72 h

Row | Structure (SMILES) | cleaved PARP positive nuclei fraction
8 | COc1cc(Nc2ncc(F)c(Nc3ccc4c(n3)NC(=O)C(C)(C)O4)n2)cc(OC)c1OC [Tamatinib] + O=C(Nc1ccccc1)c1cc([N+](=O)[O-])ccc1Cl [GW9662] (first compound 0.4 µM, partner dose 2 µM) | 353%
9 | Cn1cncc1[C@@](N)(c1ccc(Cl)cc1)c1ccc2c(c1)c(-c1cccc(Cl)c1)cc(=O)n2C [tipifarnib] + O=C(O)C(=O)Nc1sc2c(c1C(=O)O)CCNC2 [TCS401] (first compound 0.01 µM, partner dose 1.66667 µM) | 62.9%
10 | C=CCNC1=C2C[C@@H](C)C[C@H](OC)[C@H](O)[C@@H](C)/C=C(\C)[C@H](OC(N)=O)[C@@H](OC)/C=C\C=C(/C)C(=O)NC(=CC1=O)C2=O [Tanespimycin] + COc1cc(Nc2ncc(F)c(Nc3ccc4c(n3)NC(=O)C(C)(C)O4)n2)cc(OC)c1OC [Tamatinib] (first compound 0.002 µM, partner dose 0.4 µM) | 133%
11 | Nc1cccc2c1CN(C1CCC(=O)NC1=O)C2=O (stereo not drawn) [lenalidomide] + O=C(O)c1ccc(-c2c[nH]c3ncc(-c4ccccc4)cc23)cc1C1CCCC1 [GSK650394] (first compound 1 µM, partner dose 0.16 µM) | 256%
12 | Cn1cncc1[C@@](N)(c1ccc(Cl)cc1)c1ccc2c(c1)c(-c1cccc(Cl)c1)cc(=O)n2C [tipifarnib] + CN(C)S(=O)(=O)c1ccc2c(c1)/C(=C/c1cc3c([nH]1)CCCC3)C(=O)N2 [SU6656] (first compound 0.01 µM, partner dose 0.4 µM) | 63.6%
13 | Cc1nc(Nc2ncc(C(=O)Nc3c(C)cccc3Cl)s2)cc(N2CCN(CCO)CC2)n1 [dasatanib] + C=CCn1c(=O)c2cnc(Nc3ccc(N4CCN(C)CC4)cc3)nc2n1-c1cccc(C(C)(C)O)n1 [MK1775] (first compound 0.004 µM, partner dose 0.02 µM) | 28%
14 | O=C(CCCCCCC(=O)Nc1ccccc1)NO [vorinostat] + COc1ccc(COc2ccc(Cc3cnc(N)nc3N)cc2OC)cc1 [GW2580] (first compound 0.08 µM, partner dose 1 µM) | 64.8%
15 | C[C@@H]1CCN(C(=O)CC#N)C[C@@H]1N(C)c1ncnc2[nH]ccc12 + CCc1ccc(CCOc2ccc(CC3SC(=O)NC3=O)cc2)nc1 [pioglitazone] (first compound 1 µM, partner dose 2 µM) | 142%
16 | C#Cc1cccc(Nc2ncnc3cc(OCCOC)c(OCCOC)cc23)c1 [erlotinib] + CC(C)(C)c1cnc(CSc2cnc(NC(=O)C3CCNCC3)s2)o1 [SNS-032] (first compound 0.8 µM, partner dose 0.01 µM) | 102%
17 | Cn1cncc1[C@@](N)(c1ccc(Cl)cc1)c1ccc2c(c1)c(-c1cccc(Cl)c1)cc(=O)n2C [tipifarnib] + N#Cc1c(O)c2c(-c3ccc(-c4ccccc4O)cc3)csc2[nH]c1=O [A769662] (first compound 0.01 µM, partner dose 2 µM) | 61.6%
18 | Cn1cncc1[C@@](N)(c1ccc(Cl)cc1)c1ccc2c(c1)c(-c1cccc(Cl)c1)cc(=O)n2C [tipifarnib] + COc1cc(N2CCC(N3CCN(C)CC3)CC2)ccc1Nc1ncc(Cl)c(Nc2ccccc2S(=O)(=O)C(C)C)n1 [NVP-TAE684] (first compound 0.01 µM, partner dose 0.08 µM) | 81.9%
19 | COCC[n+]1c2c(n(Cc3cnccn3)c1C)C(=O)c1ccccc1C2=O + NC(=O)Nc1cc(-c2cccc(F)c2)sc1C(=O)N[C@H]1CCCNC1 [AZD7762] (first compound 0.0004 µM, partner dose 0.02 µM) | 69.3%
20 | Nc1cccc2c1CN(C1CCC(=O)NC1=O)C2=O (stereo not drawn) [lenalidomide] + OCCn1cc(-c2cnc3nnn(Cc4ccc5ncccc5c4)c3n2)cn1 [PF04217903] (first compound 1 µM, partner dose 1 µM) | 143%
21 | Cn1nnc2c(C(N)=O)ncn2c1=O [temozolomide] + Cc1ccc(NC(=O)c2cccc(N(C)C)c2)cc1NC(=O)c1ccc(O)cc1 [ZM336372] (first compound 2 µM, partner dose 2 µM) | 106%
22 | Cn1nnc2c(C(N)=O)ncn2c1=O [temozolomide] + Cn1cc(/C=C2\C(=O)Nc3cccnc32)c2ccccc21 [GW441756] (first compound 2 µM, partner dose 0.4 µM) | 69.6%
23 | Cc1cc(N2CCOCC2)cc2[nH]c(-c3c(NC[C@@H](O)c4cccc(Cl)c4)cc[nH]c3=O)nc12 + O=C(Nc1ccccc1)c1cc([N+](=O)[O-])ccc1Cl [GW9662] (first compound 0.2 µM, partner dose 2 µM) | 65.2%
24 | C[C@]1(c2nc3c(C(N)=O)cccc3[nH]2)CCCN1 [Veliparib] + Oc1cc(-c2nc(-c3ccccc3)[nH]c2-c2ccncc2)ccc1Cl [L779450] (first compound 1.4 µM, partner dose 0.2 µM) | 354%
25 | C#Cc1cccc(Nc2ncnc3cc(OCCOC)c(OCCOC)cc23)c1 [erlotinib] + Cc1cc([N+](=O)[O-])ccc1NS(=O)(=O)c1cc(Cl)ccc1Cl [FH535] (first compound 0.8 µM, partner dose 1 µM) | 74.4%
26 | C[C@]1(c2nc3c(C(N)=O)cccc3[nH]2)CCCN1 [Veliparib] + C=CCn1c(=O)c2cnc(Nc3ccc(N4CCN(C)CC4)cc3)nc2n1-c1cccc(C(C)(C)O)n1 [MK1775] (first compound 1.4 µM, partner dose 0.02 µM) | 73.4%
27 | Cn1c(Nc2ccc(C(F)(F)F)cc2)nc2cc(Oc3ccnc(-c4ncc(C(F)(F)F)[nH]4)c3)ccc21 + O=C(Nc1cccc(Cl)c1)Nc1ncc(CCNc2ncnc3ccsc23)s1 [SNS314] (first compound 0.08 µM, partner dose 0.0008 µM) | 130%
28 | C#Cc1cccc(Nc2ncnc3cc(OCCOC)c(OCCOC)cc23)c1 [erlotinib] + O=C(Nc1ccccc1)c1cc([N+](=O)[O-])ccc1Cl [GW9662] (first compound 0.8 µM, partner dose 2 µM) | 108%
29 | NC(=O)Nc1cc(-c2cccc(F)c2)sc1C(=O)N[C@H]1CCCNC1 + C[C@@H]1CCN(C(=O)CC#N)C[C@@H]1N(C)c1ncnc2[nH]ccc12 [CP690550] (first compound 0.02 µM, partner dose 1 µM) | 134%
30 | COCC[n+]1c2c(n(Cc3cnccn3)c1C)C(=O)c1ccccc1C2=O + OCCn1cc(-c2cnc3nnn(Cc4ccc5ncccc5c4)c3n2)cn1 [PF04217903] (first compound 0.0004 µM, partner dose 1 µM) | 57%
31 | C=CCn1c(=O)c2cnc(Nc3ccc(N4CCN(C)CC4)cc3)nc2n1-c1cccc(C(C)(C)O)n1 + COc1ccc(-c2ccc3c(N4CCOCC4)nc(N4C[C@@H](C)O[C@@H](C)C4)nc3n2)cc1CO [KU0063794] (first compound 0.02 µM, partner dose 0.02 µM) | 71.8%
32 | Cc1cc(N2CCOCC2)cc2[nH]c(-c3c(NC[C@@H](O)c4cccc(Cl)c4)cc[nH]c3=O)nc12 + CCCCCCCCCCCC1=C(O)C(=O)C=C(O)C1=O [Embelin] (first compound 0.2 µM, partner dose 1.2 µM) | 63.4%
33 | C=CCNC1=C2C[C@@H](C)C[C@H](OC)[C@H](O)[C@@H](C)/C=C(\C)[C@H](OC(N)=O)[C@@H](OC)/C=C\C=C(/C)C(=O)NC(=CC1=O)C2=O [Tanespimycin] + CN(NC(=O)CC(=O)NN(C)C(=S)c1ccccc1)C(=S)c1ccccc1 [STA4783] (first compound 0.002 µM, partner dose 0.006 µM) | 36.3%

An excerpt of these results, as tab-separated lines.
Row	Structure (SMILES)	cleaved PARP positive nuclei fraction
21	Cn1nnc2c(C(N)=O)ncn2c1=O [temozolomide] + Cc1ccc(NC(=O)c2cccc(N(C)C)c2)cc1NC(=O)c1ccc(O)cc1 [ZM336372] (first compound 2 µM, partner dose 2 µM)	106%
22	Cn1nnc2c(C(N)=O)ncn2c1=O [temozolomide] + Cn1cc(/C=C2\C(=O)Nc3cccnc32)c2ccccc21 [GW441756] (first compound 2 µM, partner dose 0.4 µM)	69.6%
23	Cc1cc(N2CCOCC2)cc2[nH]c(-c3c(NC[C@@H](O)c4cccc(Cl)c4)cc[nH]c3=O)nc12 + O=C(Nc1ccccc1)c1cc([N+](=O)[O-])ccc1Cl [GW9662] (first compound 0.2 µM, partner dose 2 µM)	65.2%
24	C[C@]1(c2nc3c(C(N)=O)cccc3[nH]2)CCCN1 [Veliparib] + Oc1cc(-c2nc(-c3ccccc3)[nH]c2-c2ccncc2)ccc1Cl [L779450] (first compound 1.4 µM, partner dose 0.2 µM)	354%
25	C#Cc1cccc(Nc2ncnc3cc(OCCOC)c(OCCOC)cc23)c1 [erlotinib] + Cc1cc([N+](=O)[O-])ccc1NS(=O)(=O)c1cc(Cl)ccc1Cl [FH535] (first compound 0.8 µM, partner dose 1 µM)	74.4%
26	C[C@]1(c2nc3c(C(N)=O)cccc3[nH]2)CCCN1 [Veliparib] + C=CCn1c(=O)c2cnc(Nc3ccc(N4CCN(C)CC4)cc3)nc2n1-c1cccc(C(C)(C)O)n1 [MK1775] (first compound 1.4 µM, partner dose 0.02 µM)	73.4%
27	Cn1c(Nc2ccc(C(F)(F)F)cc2)nc2cc(Oc3ccnc(-c4ncc(C(F)(F)F)[nH]4)c3)ccc21 + O=C(Nc1cccc(Cl)c1)Nc1ncc(CCNc2ncnc3ccsc23)s1 [SNS314] (first compound 0.08 µM, partner dose 0.0008 µM)	130%
28	C#Cc1cccc(Nc2ncnc3cc(OCCOC)c(OCCOC)cc23)c1 [erlotinib] + O=C(Nc1ccccc1)c1cc([N+](=O)[O-])ccc1Cl [GW9662] (first compound 0.8 µM, partner dose 2 µM)	108%
